Amino acid sequences for entries named in this document (tags omitted). A change or cut given only in a name is not applied to a line headed by its entry.
UniProt Q9SGH2: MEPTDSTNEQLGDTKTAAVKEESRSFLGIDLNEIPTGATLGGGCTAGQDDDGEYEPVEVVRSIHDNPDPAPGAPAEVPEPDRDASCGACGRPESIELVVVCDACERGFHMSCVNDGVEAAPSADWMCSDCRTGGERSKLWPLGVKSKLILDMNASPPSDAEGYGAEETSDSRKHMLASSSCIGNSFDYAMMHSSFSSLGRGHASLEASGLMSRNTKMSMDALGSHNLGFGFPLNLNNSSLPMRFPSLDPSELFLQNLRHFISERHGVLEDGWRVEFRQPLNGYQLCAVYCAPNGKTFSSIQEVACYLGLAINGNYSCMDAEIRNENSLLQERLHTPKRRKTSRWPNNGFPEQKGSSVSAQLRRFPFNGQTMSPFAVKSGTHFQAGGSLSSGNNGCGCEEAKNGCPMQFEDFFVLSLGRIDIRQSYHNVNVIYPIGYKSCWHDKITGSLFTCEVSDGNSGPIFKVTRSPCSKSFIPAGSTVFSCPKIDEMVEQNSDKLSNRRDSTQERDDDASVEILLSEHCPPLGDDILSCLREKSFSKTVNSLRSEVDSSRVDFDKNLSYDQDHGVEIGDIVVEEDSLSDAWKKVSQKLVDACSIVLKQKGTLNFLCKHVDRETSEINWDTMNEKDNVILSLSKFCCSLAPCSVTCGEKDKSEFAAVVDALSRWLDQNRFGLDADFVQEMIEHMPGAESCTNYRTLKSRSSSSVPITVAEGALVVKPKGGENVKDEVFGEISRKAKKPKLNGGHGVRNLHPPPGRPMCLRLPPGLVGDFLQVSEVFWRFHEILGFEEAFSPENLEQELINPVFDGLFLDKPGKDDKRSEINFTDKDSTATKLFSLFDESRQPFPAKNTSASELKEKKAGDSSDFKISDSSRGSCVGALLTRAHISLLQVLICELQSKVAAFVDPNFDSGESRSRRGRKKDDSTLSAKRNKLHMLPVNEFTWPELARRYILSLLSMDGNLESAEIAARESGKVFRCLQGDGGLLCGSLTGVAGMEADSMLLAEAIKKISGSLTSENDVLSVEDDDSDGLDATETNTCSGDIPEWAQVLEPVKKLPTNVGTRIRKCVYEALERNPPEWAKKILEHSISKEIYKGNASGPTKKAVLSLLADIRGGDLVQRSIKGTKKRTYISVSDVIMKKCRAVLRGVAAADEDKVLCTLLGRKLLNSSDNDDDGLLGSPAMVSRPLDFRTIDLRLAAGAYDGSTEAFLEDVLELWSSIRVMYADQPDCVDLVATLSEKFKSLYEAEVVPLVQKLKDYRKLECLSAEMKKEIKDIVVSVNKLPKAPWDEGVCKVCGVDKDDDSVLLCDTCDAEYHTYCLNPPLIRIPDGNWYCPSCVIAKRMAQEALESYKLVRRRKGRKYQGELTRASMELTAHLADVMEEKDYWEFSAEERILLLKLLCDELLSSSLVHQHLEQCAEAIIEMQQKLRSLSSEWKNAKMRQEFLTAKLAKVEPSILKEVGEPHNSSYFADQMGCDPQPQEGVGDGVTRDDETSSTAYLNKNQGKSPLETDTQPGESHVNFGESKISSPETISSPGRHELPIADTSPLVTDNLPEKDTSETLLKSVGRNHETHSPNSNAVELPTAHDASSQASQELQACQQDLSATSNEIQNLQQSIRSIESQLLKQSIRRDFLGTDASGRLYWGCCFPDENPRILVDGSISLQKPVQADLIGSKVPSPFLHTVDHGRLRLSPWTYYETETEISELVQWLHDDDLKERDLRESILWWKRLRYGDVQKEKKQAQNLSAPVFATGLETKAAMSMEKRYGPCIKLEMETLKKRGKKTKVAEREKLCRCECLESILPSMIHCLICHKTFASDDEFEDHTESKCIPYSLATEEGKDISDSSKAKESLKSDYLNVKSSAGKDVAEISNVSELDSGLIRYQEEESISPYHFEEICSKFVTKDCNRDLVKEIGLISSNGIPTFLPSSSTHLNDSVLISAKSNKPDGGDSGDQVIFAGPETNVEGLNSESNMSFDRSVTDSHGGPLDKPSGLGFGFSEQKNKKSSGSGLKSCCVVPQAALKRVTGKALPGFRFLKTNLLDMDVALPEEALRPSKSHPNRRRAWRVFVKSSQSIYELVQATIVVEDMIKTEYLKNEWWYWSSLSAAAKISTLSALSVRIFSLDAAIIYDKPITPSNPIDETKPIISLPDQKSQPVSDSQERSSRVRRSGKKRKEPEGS
UniProt Q8RWY3: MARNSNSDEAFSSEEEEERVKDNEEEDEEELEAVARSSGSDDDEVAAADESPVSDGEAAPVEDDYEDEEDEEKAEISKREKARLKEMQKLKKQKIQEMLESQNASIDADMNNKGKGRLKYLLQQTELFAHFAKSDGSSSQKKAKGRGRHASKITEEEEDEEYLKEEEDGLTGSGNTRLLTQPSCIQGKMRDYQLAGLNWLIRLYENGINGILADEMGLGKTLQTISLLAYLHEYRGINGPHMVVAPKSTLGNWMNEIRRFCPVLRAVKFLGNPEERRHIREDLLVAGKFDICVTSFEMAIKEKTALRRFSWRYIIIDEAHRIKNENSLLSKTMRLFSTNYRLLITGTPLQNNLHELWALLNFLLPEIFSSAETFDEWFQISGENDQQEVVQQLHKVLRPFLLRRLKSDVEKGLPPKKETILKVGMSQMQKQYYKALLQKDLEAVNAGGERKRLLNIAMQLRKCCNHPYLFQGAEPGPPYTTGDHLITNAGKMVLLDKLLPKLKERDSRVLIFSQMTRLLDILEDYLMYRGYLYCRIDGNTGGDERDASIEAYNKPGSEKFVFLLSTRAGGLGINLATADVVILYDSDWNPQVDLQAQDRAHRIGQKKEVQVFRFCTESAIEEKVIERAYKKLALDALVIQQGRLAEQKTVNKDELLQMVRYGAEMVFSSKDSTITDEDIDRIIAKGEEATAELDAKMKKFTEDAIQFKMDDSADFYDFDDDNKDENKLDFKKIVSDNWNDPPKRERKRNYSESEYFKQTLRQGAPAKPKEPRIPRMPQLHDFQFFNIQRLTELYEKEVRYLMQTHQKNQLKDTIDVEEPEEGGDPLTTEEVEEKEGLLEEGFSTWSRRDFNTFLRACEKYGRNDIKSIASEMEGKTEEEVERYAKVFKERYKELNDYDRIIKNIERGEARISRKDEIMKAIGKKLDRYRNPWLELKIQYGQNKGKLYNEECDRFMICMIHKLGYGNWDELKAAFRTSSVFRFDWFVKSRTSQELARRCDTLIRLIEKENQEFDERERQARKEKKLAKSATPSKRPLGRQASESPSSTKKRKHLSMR
UniProt Q9FMR9: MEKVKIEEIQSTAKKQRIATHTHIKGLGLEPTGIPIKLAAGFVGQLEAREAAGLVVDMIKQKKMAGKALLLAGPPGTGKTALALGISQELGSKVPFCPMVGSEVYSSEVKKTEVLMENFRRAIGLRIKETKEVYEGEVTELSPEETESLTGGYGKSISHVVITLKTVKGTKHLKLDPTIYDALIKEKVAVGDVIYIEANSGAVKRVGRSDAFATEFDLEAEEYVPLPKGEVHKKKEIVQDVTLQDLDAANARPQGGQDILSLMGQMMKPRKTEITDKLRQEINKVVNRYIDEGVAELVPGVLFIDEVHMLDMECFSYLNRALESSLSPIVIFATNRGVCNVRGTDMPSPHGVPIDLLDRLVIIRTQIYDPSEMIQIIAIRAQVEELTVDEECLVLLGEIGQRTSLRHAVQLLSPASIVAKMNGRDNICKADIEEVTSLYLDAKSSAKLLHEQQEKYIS
UniProt F4JY24: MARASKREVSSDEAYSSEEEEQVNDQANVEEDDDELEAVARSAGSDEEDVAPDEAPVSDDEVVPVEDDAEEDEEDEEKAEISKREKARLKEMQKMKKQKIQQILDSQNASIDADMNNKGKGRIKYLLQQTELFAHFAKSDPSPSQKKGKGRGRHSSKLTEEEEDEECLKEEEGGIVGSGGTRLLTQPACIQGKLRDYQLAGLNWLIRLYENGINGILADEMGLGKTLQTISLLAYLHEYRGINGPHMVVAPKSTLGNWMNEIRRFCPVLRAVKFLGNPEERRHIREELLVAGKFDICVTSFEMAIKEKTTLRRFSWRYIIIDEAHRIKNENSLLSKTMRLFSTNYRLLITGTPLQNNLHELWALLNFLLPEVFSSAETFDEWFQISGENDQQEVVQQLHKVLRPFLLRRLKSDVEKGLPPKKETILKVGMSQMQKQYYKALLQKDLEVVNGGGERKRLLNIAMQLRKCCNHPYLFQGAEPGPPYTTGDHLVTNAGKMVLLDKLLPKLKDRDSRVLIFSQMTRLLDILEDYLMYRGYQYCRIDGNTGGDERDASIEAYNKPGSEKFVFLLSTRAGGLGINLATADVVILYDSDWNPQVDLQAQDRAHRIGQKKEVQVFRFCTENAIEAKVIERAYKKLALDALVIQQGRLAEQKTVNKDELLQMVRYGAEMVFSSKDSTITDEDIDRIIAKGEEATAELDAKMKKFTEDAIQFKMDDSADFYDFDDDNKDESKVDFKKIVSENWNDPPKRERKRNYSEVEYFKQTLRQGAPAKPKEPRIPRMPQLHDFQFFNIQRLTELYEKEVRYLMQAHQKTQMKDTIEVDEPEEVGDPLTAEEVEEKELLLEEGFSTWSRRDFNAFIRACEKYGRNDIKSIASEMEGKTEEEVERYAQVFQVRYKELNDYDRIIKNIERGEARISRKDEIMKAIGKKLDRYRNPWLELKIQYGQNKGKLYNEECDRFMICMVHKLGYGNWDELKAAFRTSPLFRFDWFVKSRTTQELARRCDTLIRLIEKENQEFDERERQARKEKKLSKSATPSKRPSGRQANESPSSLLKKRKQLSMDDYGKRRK
UniProt Q9FJW0: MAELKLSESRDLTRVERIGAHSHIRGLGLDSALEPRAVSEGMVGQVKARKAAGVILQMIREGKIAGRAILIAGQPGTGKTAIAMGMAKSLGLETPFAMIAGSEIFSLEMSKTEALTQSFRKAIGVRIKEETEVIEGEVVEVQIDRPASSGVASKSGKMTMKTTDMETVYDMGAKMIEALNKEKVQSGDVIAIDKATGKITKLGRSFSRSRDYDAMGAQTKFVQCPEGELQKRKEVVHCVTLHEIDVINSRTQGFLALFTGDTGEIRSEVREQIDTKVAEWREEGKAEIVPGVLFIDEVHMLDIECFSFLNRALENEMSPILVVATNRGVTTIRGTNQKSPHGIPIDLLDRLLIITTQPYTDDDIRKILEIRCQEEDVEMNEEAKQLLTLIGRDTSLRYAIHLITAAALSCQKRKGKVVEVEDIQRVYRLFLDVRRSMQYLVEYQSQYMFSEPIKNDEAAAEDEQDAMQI

According to publication PMC6659704:

What was measured:
ARP6-9xMYC (Arabidopsis) = biological target: T1, ARP6-9xMYC (Arabidopsis) (UniProt Q8LGE3); assay: affinity purification with mass spectrometry; ARP6-9xMyc line, flower lysate, monoclonal 9E10 coupled to magnetic beads; six washes with IP buffer at 4 °C; proteins released by 3C cleavage overnight at 5 °C; wild type as control
T1 sequence: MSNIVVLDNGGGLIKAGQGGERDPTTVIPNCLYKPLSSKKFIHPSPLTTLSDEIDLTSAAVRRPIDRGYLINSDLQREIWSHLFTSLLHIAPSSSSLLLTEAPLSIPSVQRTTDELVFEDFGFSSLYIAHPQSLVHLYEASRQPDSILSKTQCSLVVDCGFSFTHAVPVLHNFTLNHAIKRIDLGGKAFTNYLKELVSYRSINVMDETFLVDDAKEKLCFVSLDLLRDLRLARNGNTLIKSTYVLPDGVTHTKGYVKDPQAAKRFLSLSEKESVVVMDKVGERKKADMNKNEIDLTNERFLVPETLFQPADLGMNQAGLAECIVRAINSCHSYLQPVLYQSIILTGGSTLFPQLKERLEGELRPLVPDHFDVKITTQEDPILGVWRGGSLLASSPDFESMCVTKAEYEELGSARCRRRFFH

MBD9-9xMYC (Arabidopsis) = MBD9-9xMYC (Arabidopsis) (UniProt Q9SGH2); assay: affinity purification with mass spectrometry; MBD9-9xMyc line, flower lysate, monoclonal 9E10 coupled to magnetic beads; six washes with IP buffer at 4 °C; eluted with 8 M urea in 50 mM Tris pH 8.5; wild type as control
[1] = biological target: T2, ARP6-3xFLAG (Arabidopsis) (UniProt Q8LGE3); assay: affinity purification with mass spectrometry; anti-FLAG M2 magnetic beads in lysate of ~10 g flowers of ARP6-3xFLAG (T3) or MBD9-3xFLAG (T4) lines, Col-0 as negative control; IP buffer, 4 °C, 2 h; eluted with 3X FLAG peptides in TBS, TCA precipitated
T2 sequence: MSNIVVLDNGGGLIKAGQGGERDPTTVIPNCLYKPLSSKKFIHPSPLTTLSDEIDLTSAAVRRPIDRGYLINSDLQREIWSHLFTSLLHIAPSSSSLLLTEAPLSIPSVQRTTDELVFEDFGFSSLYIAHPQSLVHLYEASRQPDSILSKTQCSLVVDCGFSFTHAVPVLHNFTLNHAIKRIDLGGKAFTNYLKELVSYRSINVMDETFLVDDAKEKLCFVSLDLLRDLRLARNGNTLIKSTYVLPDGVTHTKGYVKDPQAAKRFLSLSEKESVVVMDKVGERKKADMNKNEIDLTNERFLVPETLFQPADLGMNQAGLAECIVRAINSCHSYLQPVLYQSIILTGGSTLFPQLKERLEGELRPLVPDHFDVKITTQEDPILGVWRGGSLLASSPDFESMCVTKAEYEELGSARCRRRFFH

[2] = biological target: MBD9-3xFLAG (Arabidopsis) (UniProt Q9SGH2); assay: as above

Row | Molecule | binding (ARP6-9xMYC (Arabidopsis)) | binding (MBD9-9xMYC (Arabidopsis)) | binding [1] | binding [2]
1 | CHR11 (from UniProt Q8RWY3 1-1056) | no binding | binds | no binding | binds
2 | RuvB-like protein 1 (from UniProt Q9FMR9 1-458) | binds | binds | binds | binds
3 | methyl-CpG-binding domain 9 (MBD9), endogenous (from UniProt Q9SGH2 1-2176) | binds |  | binds | 
4 | PHOTOPERIOD-… EARLY FLOWERING 1 (from UniProt Q7X9V2 1-2055) | binds | binds | binds | binds
5 | CHR17 (from UniProt F4JY24 1-1069) | no binding | binds | no binding | binds
6 | RuvB-like protein 2 (from UniProt Q9FJW0) | binds | binds | binds | binds
7 | AL4 (protein, UniProt O81488 1-255) MEAGGAYNPRTVEEVFRDFKGRRAGMIKALTTDVQEFFRLCDPEKENLCLYGHPNEHWEVNLPAEEVPPELPEPVLGINFARDGMAEKDWLSLVAVHSDAWLLAVAFFFGARFGFDKADRKRLFNMVNDLPTIFEVVAGTAKKQGKDKSSVSNNSSNRSKSSSKRGSESRAKFSKPEPKDDEEEEEEGVEEEDEDEQGETQCGACGESYAADEFWICCDLCEMWFHGKCVKITPARAEHIKQYKCPSCSNKRARS | binds |  |  | 
8 | AL5 (protein, UniProt Q5XEM9 1-260) MEGGTAHYSPRTVEEVFRDFKGRRAGIIQALTTDVEDFFQQCDPEKQNLCLYGFPNEVWEVNLPAEEVPPELPEPALGINFARDGMQERNWLSLVAVHSDAWLLSVSFYFGSRFGFDRADRKRLFSMINEVPTVYEVVTGNAEKQTKEMPSSANQNGNRSKSNSKMRGLESKSSKTIHAKDEEEGLELEEGEEEEDEDEDEHGETLCGACGDNYASDEFWICCDMCEKWFHGECVKITPARAEHIKHYKCPTCSNKRARP | binds |  | binds | 
9 | AL6 (protein, UniProt Q8S8M9 1-256) MEGITHPIPRTVEEVFSDFRGRRAGLIKALTNDMVKFYQTCDPEKENLCLYGLPNETWEVNLPVEEVPPELPEPALGINFARDGMQEKDWVSLVAVHSDSWLLSVAFYFGARFGFGKNERKRLFQMINELPTIFEVVSGNAKQSKDLSVNNNNSKSKPSGVKSRQSESLSKVAKMSSPPPKEEEEEEDESEDESEDDEQGAVCGACGDNYGTDEFWICCDACEKWFHGKCVKITPAKAEHIKHYKCPTCSNKRARP | binds | binds | binds | 
10 | AL7 (protein, UniProt Q8LA16 1-252) MEGIQHPIPRTVEEVFSDFRGRRAGLIKALSTDVQKFYHQCDPEKENLCLYGLPNETWEVNLPVEEVPPELPEPALGINFARDGMQEKDWISLVAVHSDSWLISVAFYFGARFGFGKNERKRLFQMINDLPTIFEVVTGNAKQSKDQSANHNSSRSKSSGGKPRHSESHTKASKMSPPPRKEDESGDEDEDDEQGAVCGACGDNYGGDEFWICCDACEKWFHGKCVKITPAKAEHIKHYKCPSCTTSKKMKA | binds |  |  | 
11 | ACTIN-RELATED PROTEIN 4 (protein, UniProt Q84M92 1-441) MYGGDEVSAIVVDLGSHTCKAGYAGEDAPKAVFPSVIGAVDGVEAMDVDVDSTKTNSNSEDSKTESEKEKSKRKLYVGSQAMSYRRDHMEVLSPIKDGIVSDWDLVDNIWEHAFKSCLMIDPTEHPMLLAEPPLNTQQQREKAAELMFEKYKVPALFMAKNPVLTSFATGRATSLVVDCGGGSTTISPVHDGYVLQKAVVSSPLGGEFLTDCLLKSLESKGIKIRPRYSFKRKEVRAGEFQVEDVDIPDTTESYKLFCQRMIVGDIKDSICRVPDTPYDDKSYSNIPTTSYELPDGQTLEIGADRFKVPDVMFNPSIVQTIPGMEKYAEMIPSVRGLPHMVMESINKCDVDIRRELYSSILLAGGTSSMQQLKERLEKDLIEESPHSARVKVLASGNTTERRFSVWIGGSILASLGSFQQMWFSKSEYEEHGASYIQRKCP | binds | binds | binds | binds
12 | SWR1 complex subunit 4 (protein, UniProt Q8VZL6 1-441) MGGTDAKDILGLPKTPLSLTQEKKSRPQKESHRKPDGISREVYALTGGVAPLMPSIDLKRRPPADEKVAWKWLSFTNSARKDDLQLYHWVRVVNDVPPTGDYSFAKYNKSVDILKYTDEEYENHLTDSVWTKEETDQLFEFCQNFDLRFVVIADRFPVSRTVEELKDRYYSVNRALLRARAQSPADVANHPLMKEPYDITRDRERKRALSMVLSQSRHQEKKDAEILAEAKRITEMRLAARRAEEPDVSANENAGLDKADGVVPGRSVSPTSNSQLPATAVAPSTLTMADYASTLASLRMLHVYLRTYGLEQMVQAASSAVGLRTIKRVEQTLQDLGVNLKPKVPTKTVCDEHLELRKEILTLLNLQKQLQYKESEGSSHREGSYAAMPDTPKDRVFAPDPFSFGAERPIKKEQKRKGPGRQADTPSPAHKRPRKLKASDL | binds | binds | binds | binds
13 | SWR1 complex subunit 2 (protein, UniProt F4IP06 1-365) MEIDEEEPMVFLDRTTRATRGKRMTKLLDDEVEEDEQFWNQEALKEEEHDDEYEAEREVADEFDSDFNDDEPEPDAVAVNEKELRDLPKKRLIYPGKTASKKKKKKTKVVSQLEYIPGDEKPGEELGNKEQEEKEENEAQEDMEGEKVIRKSTRTSVVVRQAERDALRAAIQATTKPIQRKKVGEEKRMTQEEMLLEAAQTEIMNLRNLERVLAREEEVKKKAIVHKAVYKGPQIRYHSKDGCNYLEFCNGASFNSELSTKSVPYPEKAVCVITGLPAKYRDPKTGLPYATRDAFKAIRERFMDEHDGLRKKMEMGDLFDTLVAKGFATKQKRTKIPKSNKSFSLRSSARFLSSESEEESEEDSD | binds | binds | binds | 
14 | YAF9A (protein, UniProt Q9FH40 1-268) MTNSSSSKKQAQDQPETSEPTLKSLKTKMTKSDEKQKKLKDIEISVPIVYGNVAFWLGKKASEYQSHKWAVYVRGATNEDISVVVKKVVFQLHSSFNSPTRVIEEPPFEVSESGWGEFEIAMTLHFHSDVCDKPLSLYHHLKLYPEDESGPLTMKKPVVVESYDEIVFPDPSESFLARVQNHPALTFPRLPSGYNLPAPMQVEDTGKKKRGDTKDHSLGQWFMSFSEADELLQLAAARQQVQAHIAKLRRQISLLEGQNQTVKTGSDL | binds | binds | binds | binds
15 | SERRATED LEAVES AND EARLY FLOWERING (protein, UniProt Q9FHW2 1-171) MEEEMSNRRVSNRTRKVATKMAAALTSNDNRTQAAIARLEALENDNGAIEVIDLNDDEEASLDEDDDLGYLQKKQHKGSKRKTRQAKALEARKAPKSFLELLQEANLESLPSHVPTYLKAAVGPPSSSSRRYFCSVCGYIAGYNCCLCGMRFCSIRCQNIHKDTRCQKFVA | binds | binds | binds | 
16 | ACTIN-RELATED PROTEIN 6 (ARP6), endogenous (protein, UniProt Q8LGE3 1-421) MSNIVVLDNGGGLIKAGQGGERDPTTVIPNCLYKPLSSKKFIHPSPLTTLSDEIDLTSAAVRRPIDRGYLINSDLQREIWSHLFTSLLHIAPSSSSLLLTEAPLSIPSVQRTTDELVFEDFGFSSLYIAHPQSLVHLYEASRQPDSILSKTQCSLVVDCGFSFTHAVPVLHNFTLNHAIKRIDLGGKAFTNYLKELVSYRSINVMDETFLVDDAKEKLCFVSLDLLRDLRLARNGNTLIKSTYVLPDGVTHTKGYVKDPQAAKRFLSLSEKESVVVMDKVGERKKADMNKNEIDLTNERFLVPETLFQPADLGMNQAGLAECIVRAINSCHSYLQPVLYQSIILTGGSTLFPQLKERLEGELRPLVPDHFDVKITTQEDPILGVWRGGSLLASSPDFESMCVTKAEYEELGSARCRRRFFH |  | binds |  | binds

No constants are given. Whether binding was seen depends on the method and setting. In cells and extracts the contact can be indirect. Here binding means that the protein was enriched with, or labelled near, the bait; the list need not be complete. For some of these results: A no says only that the protein was not detected with the bait. For some of these results: Tags and fused reporters may be left off the sequences shown.
